In all, about 200,000 compounds went through this assay and about 25 (0.01%) were called active. The inconclusive results got no clear call from the source; some entries with a clear call stand among them for comparison. Calls come from the whole dose curve; as a rule, active = well fitted inhibition curve with a large enough effect in the signal ratio, with a control signal flat (not every such curve was filed as active); inconclusive = small, poorly fitted or top-dose-only effect, or effect the other way, or a change in a side signal; inactive = flat fitted curve, though single readings scatter; the % refers to the signal ratio. Potencies beside an inconclusive call are fits to weak or partial responses and may not hold up.
Experiment: qHTS Assay for Modulators of Lamin A Splicing
Conditions: HeLa LMNA splicing GFP/RFP minigene ratio, 48 h; ratio change, negative = inhibition: at 46.1 µM (top of the series) unless noted
How it was run: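 S3 HeLa cells stably expressing lamin A-EGFP splicing minigene plus DsRed2, 600 cells/well, 48 h compound exposure at 37C. Laser-scanning cytometry; analysed as GFP (500-530 nm)/RFP (575-640 nm) total intensity ratio; 0.5% DMSO vehicle.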
% is set by controls: 0 for no effect and ±100 for the full control effect; potency is the fitted concentration of half-maximal effect.

Which ratio change, negative = inhibition does the source give for Cc1ccc(-c2nc3ccccc3o2)cc1NC(=S)NC(=O)/C=C/c1ccco1 here?
Its ratio change, negative = inhibition is “inactive”.

For N#Cc1cccc(C#N)c1N1CCC(C#N)CC1, which ratio change, negative = inhibition is on record?
The ratio change, negative = inhibition was inconclusive: 5.51% [at 46 µM].

Which ratio change, negative = inhibition does the source give for COC(=O)c1cnc(N2CCN(c3ccccc3F)CC2)c2ccccc12 here?
The ratio change, negative = inhibition was inconclusive: -15.2% [at 46 µM].

With COc1ccc(OC)c(NC(=O)c2c(NCc3cccs3)sc3c2CCCC3)c1 as the molecule, how does the Potency read?
Its Potency is inconclusive: 35.5 µM [inhibitor, single point].

With CCCCCc1c2c(cc(O)c1C(=O)O)OC(=O)c1c(cc(OC)cc1C(=O)CCCC)O2 as the molecule, how does the ratio change, negative = inhibition read?
Its ratio change, negative = inhibition is “inactive”.

Which ratio change, negative = inhibition does the source give for CCC(OC(=O)c1nsc(Cl)c1Cl)C(=O)NC(C)(C)CC (centres undefined) here?
Its ratio change, negative = inhibition is inconclusive: -0.827% [at 46 µM].

With CC1CCN(CC(=O)NCc2ccccc2)CC1 as the molecule, how does the ratio change, negative = inhibition read?
Its ratio change, negative = inhibition is “inactive”.

With Cc1nn(-c2ccccn2)c2c1C(=O)C(Br)CC2 (centres undefined) as the molecule, how does the ratio change, negative = inhibition read?
Its ratio change, negative = inhibition is inconclusive: 4.42% [at 9.22 µM].

For COc1ccc(NC(=O)Cn2nnc(-c3ccccc3NS(=O)(=O)c3ccccc3)n2)cc1, which Potency is on record?
The Potency was inconclusive: 2.82 µM [falling, full curve].

With Cc1cccc(-c2nc(CSc3nc4c(c(=O)[nH]3)CCC4)c(C)o2)c1 as the molecule, how does the ratio change, negative = inhibition read?
The ratio change, negative = inhibition was inconclusive: 5.96%.

Which ratio change, negative = inhibition does the source give for CCS(=O)CCSc1nc2ccccc2s1 (centres undefined) here?
Its ratio change, negative = inhibition is “inactive”.

With O=C(CC1C(=O)NCCN1Cc1c(F)cccc1Cl)NCCC1=CCCCC1 (centres undefined) as the molecule, how does the ratio change, negative = inhibition read?
The ratio change, negative = inhibition was inconclusive: 31.2% [at 46 µM].

Which ratio change, negative = inhibition does the source give for N#CC1=C(N)N=C(SCc2cccc3ccccc23)C(C(N)=O)C12CCCCC2 (centres undefined) here?
The ratio change, negative = inhibition was “inactive”.

Which ratio change, negative = inhibition does the source give for COc1c2occc2cc2ccc(=O)oc12 here?
The ratio change, negative = inhibition was inconclusive: -12%.

Which ratio change, negative = inhibition does the source give for CCN1C(=O)CC(N2CCN(c3cccc(OC)c3)CC2)C1=O (centres undefined) here?
Its ratio change, negative = inhibition is inconclusive: 2.65% [at 46 µM].

With Cc1ccc2nc(N3CCN(C(=O)C4CC4)CC3)sc2c1 as the molecule, how does the ratio change, negative = inhibition read?
Its ratio change, negative = inhibition is inconclusive: 31% [at 46 µM].

For CC(=O)c1ccc(NC(=O)Cn2c(=O)c3cccn3c3ccccc32)cc1, which ratio change, negative = inhibition is on record?
Its ratio change, negative = inhibition is inconclusive: -14.2% [at 46 µM].

For CC(=O)Nc1ccc(NC(=O)c2ccc(NS(=O)(=O)c3cc(C(C)(C)C)ccc3C)cc2)cc1, which ratio change, negative = inhibition is on record?
The ratio change, negative = inhibition was inconclusive: 221% [at 46 µM].

With CCOC(=O)c1cccc(NC(=O)c2cnccn2)c1 as the molecule, how does the ratio change, negative = inhibition read?
The ratio change, negative = inhibition was “inactive”.

Which Potency does the source give for CCN1CCN(c2ccc(NC(=O)c3ccc([N+](=O)[O-])o3)cc2Cl)CC1 here?
The Potency was inconclusive: 35.5 µM [cytotoxic, single point].

Which ratio change, negative = inhibition does the source give for Cc1ccc(Sc2ccc(NC(=O)CCl)cc2)cc1C here?
The ratio change, negative = inhibition was “inactive”.

For CCOC(=O)c1cc2c(C)n(-c3ccc(OCC)cc3)c(C)c2ccc1=O, which ratio change, negative = inhibition is on record?
The ratio change, negative = inhibition was “inactive”.

For COC(=O)C(NS(=O)(=O)c1ccc(NC(C)=O)cc1)C(C)C (centres undefined), which ratio change, negative = inhibition is on record?
The ratio change, negative = inhibition was “inactive”.

With O=C1c2ccccc2C(=O)c2c1cccc2N1CCCC1 as the molecule, how does the ratio change, negative = inhibition read?
The ratio change, negative = inhibition was “inactive”.

For CC(C)NOC(=O)c1ccc(Cl)cc1, which ratio change, negative = inhibition is on record?
Its ratio change, negative = inhibition is inconclusive: 16.8% [at 46 µM].

For N#Cc1c(NC(=O)COC(=O)C2CC3C=CC2C3)oc(-c2ccccc2)c1-c1ccccc1 (centres undefined), which ratio change, negative = inhibition is on record?
The ratio change, negative = inhibition was inconclusive: 40.5%.

Which Potency does the source give for CN(Cc1cnc2nc(N)nc(N)c2n1)c1ccc(C(=O)N[C@H](CCC(=O)O)C(=O)O)cc1 here?
The Potency was inconclusive: 0.0794 µM [inhibitor, full curve].

For Cc1cc(C(=O)OCC(=O)c2cccs2)c2ccccc2n1, which ratio change, negative = inhibition is on record?
The ratio change, negative = inhibition was inconclusive: 3.36% [at 46 µM].

Which Potency does the source give for Cc1cccc(C(=O)N[C@H](C(=O)Nc2ncc(C)s2)C(C)C)c1 here?
The Potency was inconclusive: 35.5 µM [rising, single point].

For COc1ccc(NC(=O)Nc2cccnc2)c(OC)c1, which ratio change, negative = inhibition is on record?
The ratio change, negative = inhibition was inconclusive: -12.2% [at 46 µM].

Which ratio change, negative = inhibition does the source give for COc1cnc(-c2ccccn2)nc1N(C)C here?
The ratio change, negative = inhibition was inconclusive: -41.2% [at 46 µM].

Which ratio change, negative = inhibition does the source give for CC1CCCN(c2ccc(F)cc2N)C1 (centres undefined) here?
Its ratio change, negative = inhibition is inconclusive: -8.91% [at 46 µM].

With O=C(O)c1ccc(C2NCC(c3ccccc3Cl)c3c2[nH]c2ccccc32)cc1 (centres undefined) as the molecule, how does the ratio change, negative = inhibition read?
The ratio change, negative = inhibition was inconclusive: 25.6% [at 46 µM].

Which ratio change, negative = inhibition does the source give for CCOC(=O)c1c(-c2ccc(C)o2)csc1NC(=O)CSc1nnc(C)s1 here?
The ratio change, negative = inhibition was inconclusive: 18.8%.

Which ratio change, negative = inhibition does the source give for Cc1ccc2cc(CN(Cc3nnnn3C3CCCC3)C3CCCCC3)c(=O)[nH]c2c1C here?
Its ratio change, negative = inhibition is inconclusive: 3.1%.

For CCc1nnc(NC(=O)CSc2nnc3c(n2)[nH]c2ccccc23)s1, which ratio change, negative = inhibition is on record?
The ratio change, negative = inhibition was inconclusive: 4.24% [at 46 µM].

Which ratio change, negative = inhibition does the source give for O=C(O)c1ccc(-n2c(-c3ccc(Br)cc3)n[nH]c2=S)cc1 here?
The ratio change, negative = inhibition was “inactive”.

Which ratio change, negative = inhibition does the source give for Cn1c(=O)c2c(nc(SCC(=O)NCC3CCCO3)n2Cc2ccc(F)cc2)n(C)c1=O (centres undefined) here?
The ratio change, negative = inhibition was inconclusive: -22.1% [at 46 µM].

For O=C1CS(=O)(=O)C2(C(=O)Nc3ccccc32)N1c1cccc(Cl)c1 (centres undefined), which ratio change, negative = inhibition is on record?
Its ratio change, negative = inhibition is “inactive”.

With O=S(=O)(Nc1cccc2c1ccc1cccn12)c1cccs1 as the molecule, how does the ratio change, negative = inhibition read?
Its ratio change, negative = inhibition is inconclusive: 18.9%.

With COC(=O)c1ccc(C)c(NS(=O)(=O)c2ccc(OC)cc2)c1 as the molecule, how does the ratio change, negative = inhibition read?
Its ratio change, negative = inhibition is “inactive”.

For OCCC1CN(Cc2cc3c(cc2Cl)OCO3)CCN1C1CCCC1 (centres undefined), which ratio change, negative = inhibition is on record?
Its ratio change, negative = inhibition is inconclusive: -9.74% [at 46 µM].

For O=C(CC(Nc1ccccc1)c1ccc(F)cc1)c1ccccc1 (centres undefined), which Potency is on record?
Its Potency is inconclusive: 35.5 µM [inhibitor, single point].

With CCN(C(=O)c1ccc2c(c1)N(Cc1cccc(Cl)c1)C(=O)c1ccccc1S2=O)c1ccccc1 (centres undefined) as the molecule, how does the ratio change, negative = inhibition read?
Its ratio change, negative = inhibition is inconclusive: -4.64% [at 46 µM].

For COc1cccc2c(=O)n(CC(=O)Nc3ccc(F)cc3)ccc12, which ratio change, negative = inhibition is on record?
The ratio change, negative = inhibition was “inactive”.

With O=C(Cc1cccc(C(F)(F)F)c1)NCc1cccc(Cl)c1 as the molecule, how does the ratio change, negative = inhibition read?
Its ratio change, negative = inhibition is “inactive”.

For COc1cccc(CNC(=O)CCl)c1, which ratio change, negative = inhibition is on record?
The ratio change, negative = inhibition was inconclusive: -22.7%.

For O=C(CN1CCCc2ccccc21)N/N=C/c1ccc(O)cc1O, which ratio change, negative = inhibition is on record?
Its ratio change, negative = inhibition is inconclusive: -31.5%.

With O=C(NNC1=C(C(=O)C(F)(F)F)CCC1)c1ccc(Br)cc1 as the molecule, how does the Potency read?
The Potency was inconclusive: 35.5 µM [falling, single point].

Which ratio change, negative = inhibition does the source give for O=C(Nc1nnc(C2CC2)s1)C1Cc2ccccc2CN1S(=O)(=O)c1cccs1 (centres undefined) here?
Its ratio change, negative = inhibition is inconclusive: -0.596%.

Which ratio change, negative = inhibition does the source give for Cn1c(C2=C(O)CN(c3ccccc3)C2=N)nc2ccccc21 here?
Its ratio change, negative = inhibition is “inactive”.

Which ratio change, negative = inhibition does the source give for O=C(Nc1ccccc1)C1=C(O)CC(c2ccc(Cl)cc2)N2CCN=C12 (centres undefined) here?
The ratio change, negative = inhibition was inconclusive: -44.8%.

With COC(=O)COc1ccc(-c2nn(C)c(=O)c3ccccc23)cc1 as the molecule, how does the ratio change, negative = inhibition read?
Its ratio change, negative = inhibition is “inactive”.

For CCCCc1nn2c(=O)cc(COC(=O)c3cccc(NC(=O)COc4ccccc4)c3)nc2s1, which ratio change, negative = inhibition is on record?
Its ratio change, negative = inhibition is inconclusive: 1.37% [at 46 µM].

From PubChem BioAssay AID1487 (National Center for Advancing Translational Sciences (NCATS), 2009)
